The target in assay [1] is β-catenin, endogenous in mouse oocytes (mouse (endogenous in mouse oocytes)) (UniProt Q02248). In words: co-IP; lysate of 600 mouse oocytes; rabbit anti-Fam70a, anti-Wnt5a, anti-beta-catenin or rabbit IgG coupled to protein A/G beads, overnight at 4°C; IP buffer 20 mmol/L Tris-HCl pH 8.0, 10 mmol/L EDTA, 1 mmol/L EGTA, 150 mmol/L NaCl, 0.05% Triton X-100, 0.05% Nonidet P-40; endogenous proteins.

The chains behind the UniProt entries cited, without tags or fusion partners.
UniProt Q02248: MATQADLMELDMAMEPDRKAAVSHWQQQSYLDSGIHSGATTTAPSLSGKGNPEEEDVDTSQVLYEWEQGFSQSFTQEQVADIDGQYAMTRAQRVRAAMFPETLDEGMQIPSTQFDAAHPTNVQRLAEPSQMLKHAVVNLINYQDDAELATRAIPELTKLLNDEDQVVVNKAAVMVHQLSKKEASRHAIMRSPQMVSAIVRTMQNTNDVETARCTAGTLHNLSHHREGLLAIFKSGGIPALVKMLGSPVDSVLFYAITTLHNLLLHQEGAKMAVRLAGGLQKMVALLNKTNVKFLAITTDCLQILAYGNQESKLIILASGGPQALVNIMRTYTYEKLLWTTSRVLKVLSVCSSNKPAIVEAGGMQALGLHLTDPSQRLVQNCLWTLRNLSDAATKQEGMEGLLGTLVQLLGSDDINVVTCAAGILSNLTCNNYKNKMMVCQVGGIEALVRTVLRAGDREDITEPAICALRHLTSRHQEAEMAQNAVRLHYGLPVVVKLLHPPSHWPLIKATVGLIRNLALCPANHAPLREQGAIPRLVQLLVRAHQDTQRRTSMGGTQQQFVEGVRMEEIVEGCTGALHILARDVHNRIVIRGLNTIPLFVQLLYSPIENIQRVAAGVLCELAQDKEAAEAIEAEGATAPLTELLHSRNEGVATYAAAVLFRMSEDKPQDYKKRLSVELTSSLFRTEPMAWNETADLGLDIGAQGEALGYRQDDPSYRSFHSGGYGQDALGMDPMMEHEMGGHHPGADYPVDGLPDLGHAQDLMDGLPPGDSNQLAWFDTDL

Assay [2] deals with T1, Wnt5a (wingless-type MMTV integration site family, member 5A), endogenous in mouse oocytes (mouse (endogenous in mouse oocytes)) (UniProt P22725).
T1 sequence: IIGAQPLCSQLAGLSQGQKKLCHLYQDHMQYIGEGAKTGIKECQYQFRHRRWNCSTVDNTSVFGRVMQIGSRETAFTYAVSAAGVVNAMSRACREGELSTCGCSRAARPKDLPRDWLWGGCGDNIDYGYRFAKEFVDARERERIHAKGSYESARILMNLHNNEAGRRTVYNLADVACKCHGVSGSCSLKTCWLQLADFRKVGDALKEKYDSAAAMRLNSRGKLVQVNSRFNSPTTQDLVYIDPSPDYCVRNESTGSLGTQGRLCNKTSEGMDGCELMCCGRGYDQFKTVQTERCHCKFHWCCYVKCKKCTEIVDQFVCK
The description is as above.

For assay [3], the target named is T2, Wnt5a in pGBKT7 (yeast two-hybrid fusion) (UniProt P22725).
T2 sequence: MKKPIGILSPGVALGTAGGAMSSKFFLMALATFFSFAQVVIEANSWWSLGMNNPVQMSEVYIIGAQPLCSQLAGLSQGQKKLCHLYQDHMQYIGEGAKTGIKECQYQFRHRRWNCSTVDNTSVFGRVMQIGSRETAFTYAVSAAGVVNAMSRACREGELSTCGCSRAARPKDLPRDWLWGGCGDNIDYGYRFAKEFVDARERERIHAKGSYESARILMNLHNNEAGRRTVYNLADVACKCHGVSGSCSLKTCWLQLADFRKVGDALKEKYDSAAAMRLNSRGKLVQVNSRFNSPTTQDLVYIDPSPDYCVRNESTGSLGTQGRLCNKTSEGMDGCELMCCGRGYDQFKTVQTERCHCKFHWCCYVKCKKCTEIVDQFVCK
As to the kind of experiment: two-hybrid; Fam70A in pGADT7, Wnt5a in pGBKT7, yeast strain AH109; growth on SD/-Trp-Leu and SD/-Trp-Leu-His-Ade plates; empty vectors as negative controls.

Assay [4] has as its target T3, Strep II-Wnt5a (UniProt P22725).
T3 sequence: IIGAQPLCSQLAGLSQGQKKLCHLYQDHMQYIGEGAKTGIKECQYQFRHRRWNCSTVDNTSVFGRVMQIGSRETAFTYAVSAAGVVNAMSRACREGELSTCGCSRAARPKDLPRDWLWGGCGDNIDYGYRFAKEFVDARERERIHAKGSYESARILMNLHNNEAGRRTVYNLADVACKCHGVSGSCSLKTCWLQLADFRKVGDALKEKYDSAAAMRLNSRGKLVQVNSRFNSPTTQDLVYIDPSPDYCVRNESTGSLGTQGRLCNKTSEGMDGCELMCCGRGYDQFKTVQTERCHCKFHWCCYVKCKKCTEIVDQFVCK
As to the kind of experiment: co-IP; lysate of NIH3T3 cells co-transfected with pcDNA3.1(+)-Flag-Fam70A and pcDNA3.1(+)-Strep II-Wnt5a, collected 48 hours after transfection.

Results are given in words; binding and its absence hold for the method and conditions named. For some assays here: In cells and extracts the contact can be indirect. Some entries that bind do so weakly or less than the wild type. For some assays here: Where a sequence is shown, tags or fusion partners need not be part of it.

B1: Wnt5a (wingless-type MMTV integration site family, member 5A), endogenous in mouse oocytes (protein, UniProt P22725 62-380)
chain: IIGAQPLCSQLAGLSQGQKKLCHLYQDHMQYIGEGAKTGIKECQYQFRHRRWNCSTVDNTSVFGRVMQIGSRETAFTYAVSAAGVVNAMSRACREGELSTCGCSRAARPKDLPRDWLWGGCGDNIDYGYRFAKEFVDARERERIHAKGSYESARILMNLHNNEAGRRTVYNLADVACKCHGVSGSCSLKTCWLQLADFRKVGDALKEKYDSAAAMRLNSRGKLVQVNSRFNSPTTQDLVYIDPSPDYCVRNESTGSLGTQGRLCNKTSEGMDGCELMCCGRGYDQFKTVQTERCHCKFHWCCYVKCKKCTEIVDQFVCK
Consider B1, for which, in assay [1], the binding result is reported as “binds”.

B2: Fam70A (family with sequence similarity 70, member A), endogenous in mouse oocytes (protein, UniProt Q8BHW5 1-351)
chain: MHQSLTQQRSSDMSLPDSMGAFNRRKRNSIYVTVTLLIVSMLILTVGLAATTRTQNVTVGGYYPGVILGFGSFLGIIGSNLIENKRQMLVASIVFISFGVIAAFCCAIVDGVFAARHIDLKPLYANRCHYVPKTSQREAEEVITSSSKITPSTRALRNLTQAVKEVNCPQLSRGLCTPRIRGNTCFCCDLYNCGNRVEITGGYYEYIDVSSCQDIIHLYHLLWSATILNIVGLFLGIITAAVLGGFKDMNPTLPALNCSVENAHPTVSYYARPQVASYNTYYHSPPHLPPYSAYDFQHSGVFPSSPPSGLSDEQEPQSPSPSPSYMWSSSAPPRYSPPYYPPFEKPPPYSP
With B2, the binding result in assay [2] and in assay [1] was “binds” each time.

B3: Fam70A in pGADT7 (yeast two-hybrid fusion) (protein, UniProt Q8BHW5 1-351)
chain: MHQSLTQQRSSDMSLPDSMGAFNRRKRNSIYVTVTLLIVSMLILTVGLAATTRTQNVTVGGYYPGVILGFGSFLGIIGSNLIENKRQMLVASIVFISFGVIAAFCCAIVDGVFAARHIDLKPLYANRCHYVPKTSQREAEEVITSSSKITPSTRALRNLTQAVKEVNCPQLSRGLCTPRIRGNTCFCCDLYNCGNRVEITGGYYEYIDVSSCQDIIHLYHLLWSATILNIVGLFLGIITAAVLGGFKDMNPTLPALNCSVENAHPTVSYYARPQVASYNTYYHSPPHLPPYSAYDFQHSGVFPSSPPSGLSDEQEPQSPSPSPSYMWSSSAPPRYSPPYYPPFEKPPPYSP
Regarding B3, in assay [3], the binding entry is on record as “binds”.

B4: Flag-Fam70A (protein, UniProt Q8BHW5 1-351)
chain: MHQSLTQQRSSDMSLPDSMGAFNRRKRNSIYVTVTLLIVSMLILTVGLAATTRTQNVTVGGYYPGVILGFGSFLGIIGSNLIENKRQMLVASIVFISFGVIAAFCCAIVDGVFAARHIDLKPLYANRCHYVPKTSQREAEEVITSSSKITPSTRALRNLTQAVKEVNCPQLSRGLCTPRIRGNTCFCCDLYNCGNRVEITGGYYEYIDVSSCQDIIHLYHLLWSATILNIVGLFLGIITAAVLGGFKDMNPTLPALNCSVENAHPTVSYYARPQVASYNTYYHSPPHLPPYSAYDFQHSGVFPSSPPSGLSDEQEPQSPSPSPSYMWSSSAPPRYSPPYYPPFEKPPPYSP
With B4, the binding entry in assay [4] is recorded as “binds”.

The values are drawn from publication PMC7309945.
